PubChem BioAssay AID652259 | Drosophila RNAi Screening Center, 2013
The screen tested about 22,000 reagents; this is an unselected part of those that have a named target and a result. Of all reagents, 233 (1.1%) were called active. 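Light values are raw, unnormalised plate reads; the ratio scores behind the reporter calls were not deposited.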 A number with no mark means an inactive call. A plus sign joins genes that one reagent is predicted to hit. No sequences are given here. Not stated in the record: the amount of reagent, the time to read-out, the dose of the treatment.

Screen: 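Knock-downs that push a Wingless-driven reporter up or down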 (primary screen)
Cell system: Drosophila clone 8 imaginal disc epithelial cells
Reagent: long dsRNA against Drosophila genes
Conditions: pathway stimulated by co-transfected Wingless expression plasmid
Read-out: 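Dual luciferase reads per well after Wingless plasmid stimulation: reporter firefly light and Renilla control light; activity is firefly divided by Renilla, a ratio not deposited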
Direction: firefly reporter light: higher = more Wg reporter light, before normalisation; Renilla control light: higher = more transfected or surviving cells
Active means: 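Strong candidates differ from their plate mean by at least two out of four per-plate statistical tests; weak candidates meet just one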
Calls: active = candidate regulator (raises or lowers reporter); inactive = not a candidate

| target gene | dsRNA | reporter change call, replicate 1 | firefly reporter light, replicate 1 | firefly reporter light, replicate 2 | Renilla control light, replicate 1 | Renilla control light, replicate 2 |
| --- | --- | --- | --- | --- | --- | --- |
| CG4942 | DRSC10462 | – | 7495 | – | 2907 | – |
| CG12289 | DRSC09874 | – | 7648 | – | 3904 | – |
| CG11601 | DRSC00318 | – | 2673 | 7460 | 736 | 2707 |
| Ir40a | DRSC03732 | – | 2880 | 4816 | 1179 | 2009 |
| Ir40a | DRSC03733 | – | 3366 | 7453 | 1037 | 2146 |
| CG10352 | DRSC19353 | – | 11347 | – | 7210 | – |
| path | DRSC10361 | – | 7552 | – | 3184 | – |
| CG33467 | DRSC05525 | – | 25092 | – | 21141 | – |
| CG33467 | DRSC22651 | – | 5.17e5 | 5.78e5 | 2.13e5 | 1.62e5 |
| Gmd | DRSC03119 | – | 8381 | – | 3956 | – |
| ZnT33D | DRSC02591 | – | 2442 | 5616 | 872 | 2147 |
| CR42548 | DRSC09514 | – | 3956 | – | 1685 | – |
| Menl-2 + Menl-1 | DRSC07469 | – | 8416 | – | 3705 | – |
| Menl-2 + Menl-1 | DRSC07470 | – | 6362 | – | 2459 | – |
| CG17108 | DRSC02576 | – | 3028 | 7410 | 1853 | 4332 |
| CG17108 | DRSC22214 | – | 5.20e5 | 5.41e5 | 2.13e5 | 2.33e5 |
| Manf | DRSC14091 | – | 4295 | 7946 | 1728 | 2704 |
| CG5556 | DRSC00687 | – | 4517 | 10579 | 1808 | 4374 |
| beta'COP | DRSC03492 | – | 5505 | – | 1976 | – |
| Or35a | DRSC03389 | – | 2592 | 4995 | 1122 | 2669 |
| TfIIFbeta | DRSC16884 | – | 21547 | – | 5984 | – |
| TfIIFbeta | DRSC21447 | – | 3.10e5 | 3.60e5 | 1.17e5 | 89516 |
| CG33521 | DRSC17179 | – | 3250 | – | 1507 | – |
| CG33521 | DRSC17211 | – | 19692 | – | 12253 | – |
| CG33521 | DRSC22919 | – | 7.43e5 | 8.50e5 | 3.70e5 | 3.96e5 |
| SmF | DRSC07397 | Wg reporter activity lowered | 6675 | – | 2179 | – |
| CG43867 | DRSC17582 | – | 2677 | – | 1232 | – |
| CG43867 | DRSC17836 | – | 24745 | – | 12970 | – |
| CG43867 | DRSC17837 | – | 20678 | – | 11968 | – |
| CG43867 | DRSC17942 | – | 21878 | 6.65e5 | 18390 | 2.81e5 |
| CG43867 | DRSC17943 | – | 17066 | – | 14914 | – |
| Nepl6 | DRSC03242 | – | 2544 | – | 1276 | – |
| Septin1 | DRSC20573 | – | 21136 | – | 11668 | – |
| CG42284 | DRSC22094 | – | 6.00e5 | 6.05e5 | 2.19e5 | 2.13e5 |
| CG42284 | DRSC22342 | – | 5.18e5 | 5.28e5 | 1.54e5 | 1.73e5 |
| ninaD | DRSC02886 | – | 2693 | 7168 | 1153 | 2564 |
| dib | DRSC08711 | – | 5697 | – | 2743 | – |

Next part (6 carried over from the part before).
| target gene | dsRNA | reporter change call, replicate 1 | firefly reporter light, replicate 1 | firefly reporter light, replicate 2 | Renilla control light, replicate 1 | Renilla control light, replicate 2 |
| --- | --- | --- | --- | --- | --- | --- |
| Nepl6 | DRSC03242 | – | 2544 | – | 1276 | – |
| Septin1 | DRSC20573 | – | 21136 | – | 11668 | – |
| CG42284 | DRSC22094 | – | 6.00e5 | 6.05e5 | 2.19e5 | 2.13e5 |
| CG42284 | DRSC22342 | – | 5.18e5 | 5.28e5 | 1.54e5 | 1.73e5 |
| ninaD | DRSC02886 | – | 2693 | 7168 | 1153 | 2564 |
| dib | DRSC08711 | – | 5697 | – | 2743 | – |
| CG7694 | DRSC16288 | – | 16852 | – | 3648 | – |
| Dyro | DRSC10598 | – | 8742 | – | 1702 | – |
| fzr2 | DRSC04280 | – | 13932 | – | 4071 | – |
| CG18746 | DRSC15383 | – | 9398 | – | 2100 | – |
| RhoGAP93B | DRSC15488 | – | 18710 | – | 4635 | – |
| Ir68a | DRSC10599 | – | 7848 | – | 2954 | – |
| betaCOP | DRSC20312 | – | 2969 | 6736 | 832 | 2082 |
| CG32488 | DRSC08549 | – | 6493 | – | 1621 | – |
| CG32488 | DRSC21537 | – | 9.31e5 | 8.80e5 | 4.52e5 | 4.47e5 |
| eloF | DRSC15162 | – | 11722 | – | 3687 | – |
| CCDC151 | DRSC10131 | – | 7092 | – | 2689 | – |
| CG42552 (retired record) | DRSC11512 | – | 2697 | – | 1036 | – |
| CG13056 | DRSC09937 | – | 11244 | – | 4088 | – |
| CG9289 | DRSC03187 | – | 1723 | 7178 | 699 | 2781 |
| CG15877 | DRSC08485 | – | 3909 | – | 2850 | – |
| CG17707 | DRSC20650 | – | 12888 | – | 7815 | – |
| mirr | DRSC11369 | – | 5362 | – | 1808 | – |
| ca | DRSC15305 | – | 3168 | 7189 | 1336 | 2269 |
| ca | DRSC15306 | – | 9286 | – | 2513 | – |
| ca | DRSC16314 | – | 7491 | – | 2728 | – |
| t-Grip128 | DRSC07853 | – | 4102 | – | 1922 | – |
| CG11983 | DRSC14458 | Wg reporter activity lowered (active) | 6576 | – | 4425 | – |
| CG10973 | DRSC09813 | – | 3376 | – | 1749 | – |
| CG6576 | DRSC10663 | – | 1013 | 7681 | 973 | 2928 |
| Muc91C | DRSC16297 | – | 17668 | – | 3704 | – |
| Muc91C | DRSC21696 | – | 8.93e5 | 9.36e5 | 5.80e5 | 4.20e5 |
| yellow-f2 | DRSC16372 | – | 15035 | – | 4677 | – |
| CG12376 | DRSC06144 | – | 16611 | – | 6441 | – |
| Tsp39D | DRSC03099 | – | 3447 | 7968 | 1037 | 3116 |
| Gr64a | DRSC21713 | – | 3.30e5 | 4.49e5 | 2.85e5 | 1.92e5 |
| CG33080 | DRSC18080 | – | 23618 | – | 10733 | – |
| CG33080 | DRSC18081 | – | 32608 | – | 12064 | – |
| CG33080 | DRSC18285 | – | 19408 | – | 9952 | – |
| CG3587 | DRSC18541 | – | 4164 | 8632 | 1571 | 2674 |
| CG3587 | DRSC21966 | – | 4.54e5 | 5.36e5 | 1.77e5 | 2.24e5 |
| aurA | DRSC16905 | – | 12912 | – | 4403 | – |
